For at least one compound, name, drawing or mass did not settle the structure. Some entries share one result that the patent states for a list of compounds.
How the values were obtained:
CA1 cells [1] = conditions: control cells; BAPTA by intracellular dialysis, apamin and high concentrations of TEA extracellular (Cai et al., 2004); cited from earlier work
CA1 cells [2] = assay: Plateau potentials evoked by glutamate photolysis on CA1 cell dendrites in hippocampal slice cultures; format: cell-based; conditions: compared with control CA1 cells
From the text: It may be expected based on previous studies in the laboratory of the present inventor that partial denervation and removal of the majority of the excitatory input to area CA1 would result in a quiescent population of cells. In fact, local stimulation within area CA1 triggers prolonged, abnormally oscillatory synaptic responses in lesioned cultures that are never seen in normally innervated tissue (FIG. 1, top row), but only with a delay of 7 or more days after the injury (Wei et al., 2003). The reason is […] that denervation increases glutamate receptor expression in CA1 cells, akin to the well known phenomenon of denervation suprasensitivity in muscle. To confirm, the laboratory of the present inventor used photolysis of caged glutamate to compare the responses of CA1 cell dendrites in lesioned and unlesioned cultures.
In control cultures, distal, terminal dendritic branches of CA1 cells respond to weak photolysis of glutamate with passive subthreshold depolarizations. Stronger glutamate applications, however, trigger all-or-none Ca^2+-sensitive responses that are called plateau potentials (Wei et al., 2001). […] Plateau potentials, in contrast, are accompanied by Ca^2+ signals that can be seen throughout the stimulated dendrite within milliseconds, indicative of their rapid electrical propagation along the entire stimulated branch.

| Structure (SMILES) | prolongation of plateau potentials (CA1 cells [1]) | prolongation of plateau potentials in denervated CA1 cells (CA1 cells [2]) |
| --- | --- | --- |
| O=C(O)CN(CC(=O)O)c1ccccc1OCCOc1ccccc1N(CC(=O)O)CC(=O)O [BAPTA] | 2-4 fold | – |
| CC(C)C[C@@H]1NC(=O)[C@H](C)NC(=O)[C@H]([C@@H](C)O)NC(=O)[C@H](CCC(=O)O)NC(=O)[C@@H]2CCCN2C(=O)[C@H](C)NC(=O)[C@H](CCCCN)NC(=O)[C@@H]2CSSC[C@@H](C(=O)N[C@@H](CCC(N)=O)C(=O)N[C@@H](CCC(N)=O)C(=O)N[C@@H](Cc3cnc[nH]3)C(N)=O)NC(=O)[C@H](CCCNC(=N)N)NC(=O)[C@H](CCCNC(=N)N)NC(=O)[C@H](C)NC(=O)[C@H](CSSC[C@H](N)C(=O)N[C@@H](CC(N)=O)C(=O)N2)NC1=O [apamin] | 2-4 fold | occluded |

— patent US20090143450A1, “METHOD FOR TREATING CENTRAL PAIN SYNDROM OR FOR INDUCING CENTRALLY GENERATED PAIN IN AN ANIMAL MODEL” (UNIVERSITY OF MARYLAND, BALTIMORE, priority 2005, published 2009)
